Assay results from patent US9068161B2, “Laccases and uses thereof” (DEINOVE, priority 2010, dated 2015).

Legend:
Assay type in all cases: biochemical
[1] = Laccase assay, substrate ABTS; conditions: 60° C.
Description: (§1) Standard assays for laccase activity were performed at the temperature range from 30° C. to 90° C. by measurement of enzymatic oxidation of substrates at appropriate wavelength. The reaction was performed in presence of a substrate concentration range, 0.05 mg/mL of purified enzyme and 1 mM prepared in 0.1M citrate-phosphate buffer pH8.
(§2) Standard assays were performed using the following substrates: 2,6 DMP, 4-methyl DMP, synapic acid, syringic acid, guaiacol, ABTS, paraphenylenediamine and ferulic acid.
(§3) Reagent A (185 μl) was mixed with Reagent B (10 μl). The mixture was equilibrated to 45° C. or 60° C. The absorbance at 470 nm was monitored until constant, using a suitably thermoregulated spectrophotometer. Then Reagent C (5 μl) was added and the increase in A470 nm was recorded for 30 minutes. The ΔA470 nm/minute was obtained using the maximum linear rate for the Test, Control and Blank, Blank being mixture without enzyme and Control being mixture with laccase from Trametes versicolor (T. versicolor, commercial enzyme) replacing Laccase enzyme solution (Reagent C).
(§4) Other substrates, different from 2,6 DMP such as 4-methyl DMP, synapic acid, syringic acid, guaiacol, ABTS, paraphenylenediamine and ferulic acid have also been tested at optimal concentration for each substrate (as shown in Tables 1A and 1B). […]

[2] = Laccase assay, substrate ferulic acid; conditions: 60° C.
Description: as §1, §2, §3, §4

[3] = Laccase assay, substrate synapic acid; conditions: 45° C.
Description: as §1, §2, §3, §4

[4] = Laccase assay, substrate 2,6 DMP; conditions: 60° C.
Description: as §1, §2
2,6 DMP+O2+enzyme→Oxidized 2,6 DMP+2H2O
The assay is performed at T=45° C. and 60° C., pH=8. The absorbance was measured at A470 nm and the measure was carried out using Continuous Spectrophotometric Rate Determination.
Reagent A (185 μl) was mixed with Reagent B (10 μl). The mixture was equilibrated to 45° C. or 60° C. The absorbance at 470 nm was monitored until constant, using a suitably thermoregulated spectrophotometer. Then Reagent C (5 μl) was added and the increase in A470 nm was recorded for 30 minutes. The ΔA470 nm/minute was obtained using the maximum linear rate for the Test, Control and Blank, Blank being mixture without enzyme and Control being mixture with laccase from Trametes versicolor (T. versicolor, commercial enzyme) replacing Laccase enzyme solution (Reagent C). […]

[5] = Laccase assay, substrate guaiacol; conditions: 60° C.
Description: as §1, §2, §3, §4

[6] = Laccase assay, substrate syringic acid; conditions: 60° C.
Description: as §1, §2, §3, §4

[7] = Laccase assay, substrate paraphenylenediamine; conditions: 45° C.
Description: as §1, §2, §3, §4

Measured: Opt. pH

B1: Laccase 1: enzyme having laccase activity from Deinococcus cellulolysiticus DRH46, amino acid sequence SEQ ID NO: 2, recombinant with 6(His) tag (protein)
chain: MKQRLTAAALLTALLSSCAMKNPDVISYQDPEPLAGQRSGKAAEFTLTAQKSRLDLAGQSVEALTYNGTFPGPLLTLKAGEDVRITLKNNLSEPTNLHLHGLPLSPEVDDPFVVVPPGGSHTYAFQVPEEVHGTFWYHTHTHGASAAQLFSGLAGPLLVEAAKPNNPIEHMETHTVVFKDLPGAQHADDGVLMNGRENTLLVNGLVSPTLKTENSWVQLRLINASNARYLRLKLDDGLLQVVARDGIDLPGMERAQELLLTPGERADVLVSLQDHQNLKLQNLPYDRGVHSMGSHSGHTESKTAVVLTLQGPQKPGASVPRVETAPPPFLQLQGNEKVRKVILQETMQPVKFFINGRSFDMNRVDFHVSEGSTEIWELQNTTEMDHPFHLHTFPMQLIRIGGKEVPPVWKDTVNIPKNSTVTVAVHFKGFTGKTVFHCHIAEHEEAGMMGLLQVHPSGTALPASLEPIEPTVGPGEDAQHGH
modifications: 6xHis tag; Laccase 1 derived from Deinococcus cellulolyticus DRH46
8: all assays above

B2: Laccase 2: enzyme having laccase activity from Deinococcus cellulolysiticus DRH46, amino acid sequence SEQ ID NO: 4, recombinant with 6(His) tag (protein)
chain: MIRTLTSLTLLTVALTACAPKGSPMTEYHNPAEVQASRTEKGSTFTLTAAETSITLDGKEVKAQLFNQSFPGPQLTLQAGEQVNLTLKNDLREPTNLHLHGLTLPAGVDDPFLQVQPGESHTYSFTVPQGLHGTFWYHTHTHGHLGTQLFQGLAGPLIVEDPTFDSHIQGMETHTVVLKDLPVEVQDSDGTRMNGREGKLLVNGLSSPTLKTESSWVRLRLINASNARYDLLKLSGSAFLHVIAKDGIDLPKTEQVKELLLTPGERADVLISVQDQQDLRLENHPYDRGVHEMDGGHQGHTPSTPEVLLTLQGKKGSVSASVPQPALQPRPFLKVTGNEAIRKVVLQETMQPVKFFINGRTFDMNRVDFHVSEGTTEIWEVENQTEMDHPFHLHTFPVQVLSVNGQEVPPVWKDTVNVPAKAKVQVAVKFEGFTGKTVFHCHIAEHEEEGMMGVLQVHPAGEALPASLTPTLPPAAASEDMPDMPGMDHSGH
modifications: 6xHis tag; Laccase 2 derived from Deinococcus cellulolyticus DRH46
8: all assays above
